Assay results: PubChem BioAssay AID2685 (National Center for Advancing Translational Sciences (NCATS), 2010)
In all, about 320,000 compounds went through this assay and about 2,100 (0.66%) were called active. Inconclusive results, whose numbers are uncertain, are shown with a selection of clear calls. Calls follow the shape of the dose curve; as a rule, active = well fitted inhibition curve with a large enough effect in the signal ratio, with a control signal flat (not every such curve was filed as active); inconclusive = small, poorly fitted or top-dose-only effect, or effect the other way, or a change in a side signal; inactive = flat fitted curve, though single readings scatter; the % refers to the signal ratio. A potency beside an inconclusive call is a rough fit, not a confirmed value.

assay: qHTS Assay for Lipid Storage Modulators in Drosophila S3 Cells; settings: BODIPY lipid droplet fluorescence, 18-24 h, cells fed with added oleic acid; lipid storage change, negative = inhibition: at 46.1 µM (top of the series) unless noted
How it was run: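 Drosophila S3 cells loaded with oleic acid (400 uM, as added) and compounds at several concentrations; lipid droplets imaged by 488-nm laser-scanning cytometry, 500–530 nm intensity and object ratio to cell channel. Percent activity normalized to 20 uM Triacsin C.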
% is scaled to controls: 0 for no effect and ±100 for the full control effect; potency is read from the fitted curve at half-maximal effect.

SMILES | lipid storage change, negative = inhibition | Potency
Cc1ccccc1OCC(O)Cn1c(NCc2ccccc2)nc2c1c(=O)[nH]c(=O)n2C (stereo not given) | inconclusive: -4.46% | 
O=C1OC/C(=C(/O)c2ccc(Cl)cc2)C1=O | inconclusive: 54.5% | 
COc1cccc(C(=O)NCC(c2ccco2)N2CCc3ccccc3C2)c1 (stereo not given) |  | inconclusive: 11.6 µM [activator, single point]
CCN(CC)C(=O)Cn1cc(C(=O)C(=O)N(CC)C2CCCCC2)c2ccccc21 | inconclusive: -24.3% | 
CN(Cc1nc2ccccc2c(=O)[nH]1)C(=O)COc1ccccc1Cc1ccccc1 | inconclusive: 13% | 
CC1=NN(C(C#N)c2ccc(F)cc2)C(c2ccccc2)C1 (stereo not given) | inactive | 
NS(=O)(=O)c1ccc(CNC(=O)c2cc(=O)[nH]c3ccccc23)cc1 | inconclusive: 23.3% | 
Cc1nc2nc(SCc3ccc([N+](=O)[O-])cc3)[nH]c2cc1Br | inconclusive: 15.5% | 
O=C(Nc1cccc2ncccc12)c1ccccc1Cl |  | inconclusive: 13 µM [activator, partial curve, poor fit]
NC(=O)NCc1ccccc1F | inconclusive: -21.9% | 
CC1CN(C(=S)NC(=O)C2CCCCC2)CC(C)O1 (stereo not given) | inconclusive: -0.014% | 
CC(=O)Nc1sc(C)c(C)c1CN1CCN(S(=O)(=O)c2ccccc2)CC1 | inactive | 
C/C(=N\NC(=O)Cn1ccc(C(F)(F)F)n1)c1ccco1 | inconclusive: -13.5% | 
O=C(O)c1cccc(CSc2nc(-c3ccccc3)cc(C(F)(F)F)n2)c1 | inconclusive: 19% | 
CCOc1ccc(Nc2ccc(S(=O)(=O)N3CCN(C)CC3)cc2[N+](=O)[O-])cc1OCC | inconclusive: -17.5% | 
CCCCNS(=O)(=O)c1ccc(NS(=O)(=O)c2c(C)cc(C)cc2C)cc1 |  | inconclusive: 14.6 µM [rising, single point]
NC(=O)/C(=C/c1ccc2c(c1)OCO2)NC(=O)c1ccco1 | inconclusive: -1.36% | 
O=C(CCN1C(=O)S/C(=C\c2ccccc2)C1=O)N1CCCCC1 | inconclusive: 34.7% | 
CC(=O)c1c(C(C)=O)c(C)n(Cc2ccc(Cl)cc2)c1C | inconclusive: 188% | 
Cc1ccc(Cc2nc(-c3ccncc3)no2)cc1 | inconclusive: 33.9% | 
C/C(N)=C(/C#N)C(=O)COC(=O)c1oc2ccccc2c1COC(C)C |  | inconclusive: 0.13 µM [falling, full curve, poor fit]
CCN(CC)C(=O)CSc1nc(N)c(C#N)c(-c2cccs2)c1C#N | inactive | 
CC(=O)c1c(C)oc2ccc(NS(=O)(=O)c3ccccc3)cc12 | inconclusive: 9.27% | 
O=C(COC(=O)c1cccc(O)c1)Nc1nnc(-c2ccccc2)o1 | inconclusive | 
Cc1ccc(/C=N/NC(=O)Cc2c[nH]c3ccccc23)c(C)c1 | inconclusive: -10.6% | 
COC(=O)C(CCSC)NC(=O)C(NC(=O)C1CCC(C)CC1)C(C)C (stereo not given) | inconclusive: 42.1% | 
COc1ccc(N2CCN(CCCNC(=O)CCC(=O)N3CCOc4ccc(Cl)cc43)CC2)cc1 | inconclusive: -10.9% | 

Sorted by heavy-atom count (high to low): some entries from above.
SMILES | lipid storage change, negative = inhibition | Potency
Cc1ccccc1OCC(O)Cn1c(NCc2ccccc2)nc2c1c(=O)[nH]c(=O)n2C (stereo not given) | inconclusive: -4.46% | 
CC(=O)Nc1sc(C)c(C)c1CN1CCN(S(=O)(=O)c2ccccc2)CC1 | inactive | 
NC(=O)/C(=C/c1ccc2c(c1)OCO2)NC(=O)c1ccco1 | inconclusive: -1.36% | 
CC(=O)c1c(C(C)=O)c(C)n(Cc2ccc(Cl)cc2)c1C | inconclusive: 188% | 
Cc1ccc(Cc2nc(-c3ccncc3)no2)cc1 | inconclusive: 33.9% | 
O=C1OC/C(=C(/O)c2ccc(Cl)cc2)C1=O | inconclusive: 54.5% | 

Next part

SMILES | lipid storage change, negative = inhibition | Potency
COc1ccccc1N(C)S(=O)(=O)c1ccc(C)c(C(=O)NC(C)c2ccccn2)c1 (stereo not given) | inconclusive: 11.4% | 
C=CCn1c(NCc2cc(Cl)ccc2O)nc2ccccc21 |  | inconclusive: 32.6 µM [falling, single point]
CN1N=C(C(C)(C)C)CSC1=Nc1ccccc1 | inconclusive: -16.6% | 
Cc1cccc(OCc2nnc(SC(C)C(=O)O)n2Cc2ccccc2)c1 (stereo not given) | inconclusive: -4.26% | 
COC(=O)c1cc2ccccc2c(-c2c(OC)c(C(=O)OC)cc3ccccc23)c1OC | inconclusive: -24.7% | 
CCCCCn1c(Br)nc2c1c(=O)n(CC(N)=O)c(=O)n2C | inconclusive: 29.7% | 
C=CCN(c1ccccc1)S(=O)(=O)c1cccc(C(=O)N2CC(C)CC(C)C2)c1 (stereo not given) | inconclusive: -31.4% | 
COc1ccccc1/C=N/Nc1nc(C)cc(C)n1 |  | inconclusive: 1.84 µM [activator, full curve, poor fit]
CN(/N=C/c1cc(Cl)cc(Cl)c1O)c1c(Cl)cccc1[N+](=O)[O-] |  | inconclusive: 29.1 µM [cytotoxic, single point]
Cc1ccc(N(Cc2ccccc2)C(=O)c2cc(S(=O)(=O)N3CCOCC3)ccc2Cl)cc1 | inconclusive: -0.699% | 
Cc1ccc(N(C(=O)Cc2cccs2)C(C(=O)NC2CCCCC2)c2ccccn2)cc1C (stereo not given) | inactive | 
Cn1c(COc2ccccc2)nnc1SCc1nc2ccccc2[nH]1 |  | inconclusive: 32.6 µM [falling, partial curve, poor fit]
O=C(C1CCN(S(=O)(=O)c2ccc(F)cc2)CC1)N1CCOCC1 | inconclusive: 37% | 
CC1CN(S(=O)(=O)c2cn(C)c(=O)n(C)c2=O)CC(C)O1 (stereo not given) |  | inconclusive: 0.146 µM [cytotoxic, full curve]
COc1ccc(NC(=O)C2CCCN2C(=O)NCc2ccccc2)cc1 (stereo not given) |  | inconclusive: 6.51 µM [falling, single point]
CCOc1ccc(OCc2ccc(C(=O)Nc3ccc(Cl)cn3)o2)cc1 | inactive | 
Cc1ccc(CCN2CC(C(=O)O)CC2=O)cc1 (stereo not given) | inconclusive: -158% | 
CC1Cc2cc(S(=O)(=O)CCC(=O)N3CCN(c4ccccc4)CC3)ccc2N1C(=O)C1CC1 (stereo not given) | inconclusive: 21.2% | 
CN(CCOC(=O)c1ccco1)Cc1ccccc1 | inconclusive: -30.3% | 
O=C(/C=C/c1ccccc1)OCC(=O)N1CCCC1 | inconclusive: -38.4% | 
O=C(N/N=C/c1cccnc1)c1cc2ccccc2o1 |  | inconclusive: 18.4 µM [falling, single point]
CCOc1ccc(-n2nc3c(=O)[nH]nc(C)c3c2C)cc1 | inconclusive: 25.6% | 
O=C(Nc1ccc(F)cc1)c1ccc(S(=O)(=O)NCC2CCCO2)cc1 (stereo not given) | inconclusive: 11.9% | 
OCCCCNCc1cc(Br)ccc1OCc1ccccc1 | inconclusive: -23.8% [at 9.22 µM] | 
Nc1nc(SCc2nnc(SCC(=O)O)n2-c2ccccc2)nc2sc3c(c12)CCCC3 |  | active: 23.1 µM
Cc1cc(C)c(S(=O)(=O)N2CCC(C(=O)NCc3ccncc3)CC2)c(C)c1 | inconclusive: 18% | 
COc1ccc(CC(=O)OCC(=O)NCc2ccco2)cc1OC | inconclusive | 

Retrieved by compound from the list above, 2 records:
SMILES | lipid storage change, negative = inhibition | Potency
Cn1c(COc2ccccc2)nnc1SCc1nc2ccccc2[nH]1 |  | inconclusive: 32.6 µM [falling, partial curve, poor fit]
CC1Cc2cc(S(=O)(=O)CCC(=O)N3CCN(c4ccccc4)CC3)ccc2N1C(=O)C1CC1 (stereo not given) | inconclusive: 21.2% | 

More results.

SMILES | lipid storage change, negative = inhibition | Potency
CSc1ccccc1NC(=O)CN(c1ccccc1)S(=O)(=O)N(C)C | inconclusive: -2.59% | 
O=C(NCc1cccs1)c1cc2c(s1)CCCC2 |  | inconclusive: 29.1 µM [rising, single point]
O=C(Oc1ccccc1F)C1CCN(C(=O)c2ccc(F)cc2)CC1 |  | inconclusive: 18.4 µM [activator, single point]
COc1ccc(-c2nc(CCNC(=O)c3ccco3)cs2)cc1OC | inconclusive: 15.6% | 
CC(=O)Nc1ccc(NC(=O)CSc2nc(=O)n(Cc3ccncc3)c3c2CCC3)cc1 | inconclusive | 
Cc1ccc[n+](CC(=O)Nc2cc(C(F)(F)F)ccc2N2CCOCC2)c1 | inconclusive: -26.4% | 
CCOC(=O)C(NC(=O)Nc1ccc(Cl)cn1)(Oc1ccc(F)cc1)C(F)(F)F (stereo not given) |  | inconclusive: 18.4 µM [falling, single point]
COc1ccc(NC(=O)C2CCN(S(=O)(=O)c3cccc4cccnc34)CC2)cc1 |  | inconclusive: 29.1 µM [rising, single point]
CC(C)CCNC(=O)NC(=O)CSc1ccc(S(=O)(=O)N2CCOCC2)cn1 |  | inconclusive: 6.51 µM [falling, single point]
CCOc1ccc(CNC(=O)C2CCC(=O)N2C2CCCC2)cc1OC (stereo not given) | inconclusive: -4.94% | 
O=C(O)C1C2C=CC3(O2)C1C(=O)N1c2ccccc2COC13 (stereo not given) | inconclusive: -66.8% | 
CN(CC(=O)NCc1ccc(F)cc1)Cc1ccc(Br)cc1 |  | inconclusive: 18.4 µM [activator, single point]
O=C(CCc1ccccc1)NNC(=S)NCCc1ccccc1 | inconclusive: 90.5% | 
O=C(O)COCC(=O)NCc1csc2ccc(Cl)cc12 |  | inconclusive: 4.61 µM [activator, full curve]
C=CCN1C(=O)NC(c2ccc(OC)cc2)(C(F)(F)F)S/C1=C(\C#N)c1nnc(N2CCOCC2)n1-c1ccccc1 (stereo not given) | inconclusive: 0.0071% | 
O=C(NC(=S)Nc1ccccc1C(=O)O)c1cncc(Br)c1 | inconclusive: 14.1% | 
O=C(CN1CCN(c2ccccc2)CC1)Nc1ccccc1C(F)(F)F | inconclusive: 25.6% | 
CCC(=O)N1CCc2cc(Br)cc(S(=O)(=O)NCCCN(CC)Cc3ccccc3)c21 | inconclusive: -100% | 
COc1ccc(-c2cc([C@H]3[C@@H]4C=CCC[C@@]4(C)C(=O)N3Cc3ccccc3)ccc2F)cc1OC | inconclusive: 4.76% | 
NNC(=O)Cn1c(-c2ccccn2)nc2ccccc21 | inconclusive: 31.9% | 
CC(=O)Nc1cccc(NC(=O)CSc2nnnn2C)c1 |  | inconclusive: 2.06 µM [falling, single point]
CC(=O)Nc1ccc(/C=N/Nc2nncc3ccccc23)cc1 | inconclusive: -46% | 
CCN(C(=O)CSc1nnnn1C)c1c(N)n(Cc2ccccc2)c(=O)[nH]c1=O | inconclusive: -38.1% [at 9.22 µM] | 
CN1CCN(c2ccc(S(=O)(=O)N3CCCCC3)cc2NC(=O)COc2ccc([N+](=O)[O-])cc2)CC1 | inconclusive: 10.6% | 
CCOc1ccc2c(O)csc2c1 | inconclusive: -31.1% | 
Nc1n[nH]c(=S)n1-c1ccc(Cl)cc1 | inconclusive: -18% | 
